Data on 1 molecule can be found in article doi:10.1101/2023.04.25.538284 (bioRxiv, 2023).

These are yes or no findings as the source states them, for the method shown. In cells and extracts the contact can be indirect. Some results given as binding are weak or reduced against the parent protein; the word gives no strength. Sequences can lack the tags named with a protein.

Holding throughout (assay): split reporter
Experiment [1] has as its target T1, SnRK2.6-nLUC (Arabidopsis thaliana) (UniProt Q940H6).
T1 sequence: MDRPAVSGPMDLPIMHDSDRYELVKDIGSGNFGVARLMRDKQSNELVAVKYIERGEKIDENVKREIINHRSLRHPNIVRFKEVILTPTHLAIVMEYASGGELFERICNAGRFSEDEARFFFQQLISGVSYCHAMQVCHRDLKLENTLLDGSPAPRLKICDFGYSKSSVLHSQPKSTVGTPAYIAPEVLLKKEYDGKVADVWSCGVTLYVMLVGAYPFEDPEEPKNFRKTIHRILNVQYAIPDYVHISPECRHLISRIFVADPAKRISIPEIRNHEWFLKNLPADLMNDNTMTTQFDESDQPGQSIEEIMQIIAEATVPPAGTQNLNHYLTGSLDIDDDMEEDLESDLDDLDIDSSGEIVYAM

For experiment [2], the target named is T2, SnRK2.4-nLUC (Arabidopsis thaliana) (UniProt P43291).
T2 sequence: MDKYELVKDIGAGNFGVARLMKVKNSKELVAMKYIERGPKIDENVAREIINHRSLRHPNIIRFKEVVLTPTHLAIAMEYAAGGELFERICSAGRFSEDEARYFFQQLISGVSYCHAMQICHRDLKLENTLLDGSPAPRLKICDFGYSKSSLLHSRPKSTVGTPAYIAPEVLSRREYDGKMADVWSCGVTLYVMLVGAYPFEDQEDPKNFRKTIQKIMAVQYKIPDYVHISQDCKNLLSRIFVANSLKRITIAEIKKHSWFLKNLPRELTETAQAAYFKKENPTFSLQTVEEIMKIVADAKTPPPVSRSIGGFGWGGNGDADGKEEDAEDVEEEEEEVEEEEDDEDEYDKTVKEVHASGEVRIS

Experiment [3] addresses T3, SnRK2.5-nLUC (Arabidopsis thaliana) (UniProt Q9FFP9).
T3 sequence: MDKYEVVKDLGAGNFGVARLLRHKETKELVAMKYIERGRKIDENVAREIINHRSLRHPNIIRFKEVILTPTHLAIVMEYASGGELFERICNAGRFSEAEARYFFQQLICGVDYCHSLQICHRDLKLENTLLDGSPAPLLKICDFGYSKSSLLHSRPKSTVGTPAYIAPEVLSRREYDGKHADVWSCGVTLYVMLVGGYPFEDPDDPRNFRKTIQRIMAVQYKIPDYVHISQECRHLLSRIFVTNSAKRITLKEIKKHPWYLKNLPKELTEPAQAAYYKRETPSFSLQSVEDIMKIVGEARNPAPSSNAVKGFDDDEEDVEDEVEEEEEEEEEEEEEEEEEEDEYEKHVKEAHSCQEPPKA

Experiment [4] concerns the target T4, SnRK2.1-nLUC (Arabidopsis thaliana) (UniProt P43292).
T4 sequence: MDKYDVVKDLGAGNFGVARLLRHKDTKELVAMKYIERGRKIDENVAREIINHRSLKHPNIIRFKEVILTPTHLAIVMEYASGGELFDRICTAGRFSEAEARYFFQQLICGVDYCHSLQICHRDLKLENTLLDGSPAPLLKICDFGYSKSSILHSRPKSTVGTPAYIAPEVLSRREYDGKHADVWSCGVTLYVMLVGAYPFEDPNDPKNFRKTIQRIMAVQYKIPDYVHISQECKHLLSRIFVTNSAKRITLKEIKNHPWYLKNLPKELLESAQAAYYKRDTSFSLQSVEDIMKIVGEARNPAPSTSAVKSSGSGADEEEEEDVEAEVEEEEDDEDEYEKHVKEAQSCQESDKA

B1: SIZ1-cLUC (enzyme, UniProt Q680Q4-3 1-873)
chain: MDLEANCKEKLSYFRIKELKDVLTQLGLSKQGKKQELVDRILTLLSDEQAARLLSKKNTVAKEAVAKLVDDTYRKMQVSGASDLASKGQVSSDTSNLKVKGEPEDPFQPEIKVRCVCGNSLETDSMIQCEDPRCHVWQHVGCVILPDKPMDGNPPLPESFYCEICRLTRADPFWVTVAHPLSPVRLTATTIPNDGASTMQSVERTFQITRADKDLLAKPEYDVQAWCMLLNDKVLFRMQWPQYADLQVNGVPVRAINRPGGQLLGVNGRDDGPIITSCIRDGVNRISLSGGDVRIFCFGVRLVKRRTLQQVLNLIPEEGKGETFEDALARVRRCIGGGGGDDNADSDSDIEVVADFFGVNLRCPMSGSRIKVAGRFLPCVHMGCFDLDVFVELNQRSRKWQCPICLKNYSVEHVIVDPYFNRITSKMKHCDEEVTEIEVKPDGSWRVKFKRESERRELGELSQWHAPDGSLCPSAVDIKRKMEMLPVKQEGYSDGPAPLKLGIRKNRNGIWEVSKPNTNGLSSSNRQEKVGYQEKNIIPMSSSATGSGRDGDDASVNQDAIGTFDFVANGMELDSISMNVDSGYNFPDRNQSGEGGNNEVIVLSDSDDENDLVITPGPAYSGCQTDGGLTFPLNPPGIINSYNEDPHSIAGGSSGLGLFNDDDEFDTPLWSFPSETPEAPGFQLFRSDADVSGGLVGLHHHSPLNCSPEINGGYTMAPETSMASVPVVPGSTGRSEANDGLVDNPLAFGRDDPSLQIFLPTKPDASAQSGFKNQADMSNGLRSEDWISLRLGDSASGNHGDPATTNGINSSHQMSTREGSMDTTTETASLLLGMNDSRQDKAKKQRSDNPFSFPRQKRSVRPRMYLSIDSDSE
With B1, the binding entry in experiment [1] is given as “binds weakly”; in experiment [2], “binds”; in experiment [3], “no binding”; in experiment [4] it was “binds weakly”.
